{
  "source": "the supplement of paper PMC4604168 (melanoma cell lines)",
  "note": "The other results are listed elsewhere or left out. Many values rest on one well or one pass, so single values are uncertain.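 The apoptosis fraction was the count of cleaved-PARP antibody-stained nuclei relative to all DNA-stained nuclei, imaged in 1,536-well plates. Screening doses were set so most cells survived, and baseline and induced cleaved-PARP levels vary greatly across cell lines.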",
  "data": [
    {"system": "SkMel28", "assay": "cleaved PARP positive nuclei fraction relative to DMSO control; melanoma cells; higher = more apoptosis", "details": "library dose: low library concentration; 72 h", "units": {"cleaved PARP positive nuclei fraction": "%"}, "values": [
      {"smiles": "C[C@]12O[C@H](C[C@]1(O)CO)n1c3ccccc3c3c4c(c5c6ccccc6n2c5c31)CNC4=O", "note": "[Lestaurtinib] + CCN(CC)CCCCNc1ncc2cc(-c3cc(OC)cc(OC)c3)c(NC(=O)NC(C)(C)C)nc2n1 [PD173074] (first compound 0.004 µM, partner dose 0.1 µM)", "cleaved PARP positive nuclei fraction": 163},
      {"smiles": "N#Cc1c(O)c2c(-c3ccc(-c4ccccc4O)cc3)csc2[nH]c1=O", "note": "+ O=C(Oc1ccc([N+](=O)[O-])cc1)N1CCC(C(O)(c2ccc3c(c2)OCO3)c2ccc3c(c2)OCO3)CC1 [JZL184] (first compound 2 µM, partner dose 1 µM)", "cleaved PARP positive nuclei fraction": 71.9},
      {"smiles": "C[C@]12O[C@H](C[C@]1(O)CO)n1c3ccccc3c3c4c(c5c6ccccc6n2c5c31)CNC4=O", "note": "[Lestaurtinib] + O=c1cc(-c2cccc3c2Sc2ccccc2S3)oc(N2CCOCC2)c1 [KU55933] (first compound 0.004 µM, partner dose 1 µM)", "cleaved PARP positive nuclei fraction": 269},
      {"smiles": "CCc1ccc(CCOc2ccc(CC3SC(=O)NC3=O)cc2)nc1", "note": "(centres undefined) [pioglitazone] + O=C(Oc1ccc([N+](=O)[O-])cc1)N1CCC(C(O)(c2ccc3c(c2)OCO3)c2ccc3c(c2)OCO3)CC1 [JZL184] (first compound 2 µM, partner dose 1 µM)", "cleaved PARP positive nuclei fraction": 65.7},
      {"smiles": "COc1cc2c(Oc3ccc4[nH]c(C)cc4c3F)ncnc2cc1OCCCN1CCCC1", "note": "[cediranib] + Cc1cc(SCc2sc(-c3ccc(C(F)(F)F)c(F)c3)nc2C)ccc1OCC(=O)O [GW0742] (first compound 0.4 µM, partner dose 2 µM)", "cleaved PARP positive nuclei fraction": 57.5},
      {"smiles": "Cc1cc(SCc2sc(-c3ccc(C(F)(F)F)c(F)c3)nc2C)ccc1OCC(=O)O", "note": "+ O=C(Oc1ccc([N+](=O)[O-])cc1)N1CCC(C(O)(c2ccc3c(c2)OCO3)c2ccc3c(c2)OCO3)CC1 [JZL184] (first compound 2 µM, partner dose 1 µM)", "cleaved PARP positive nuclei fraction": 68.3},
      {"smiles": "Cc1cc(SCc2sc(-c3ccc(C(F)(F)F)c(F)c3)nc2C)ccc1OCC(=O)O", "note": "+ COc1cc(N2CCC(N3CCN(C)CC3)CC2)ccc1Nc1ncc(Cl)c(Nc2ccccc2S(=O)(=O)C(C)C)n1 [NVP-TAE684] (first compound 2 µM, partner dose 0.08 µM)", "cleaved PARP positive nuclei fraction": 53.7},
      {"smiles": "C[C@]12O[C@H](C[C@]1(O)CO)n1c3ccccc3c3c4c(c5c6ccccc6n2c5c31)CNC4=O", "note": "[Lestaurtinib] + COC(=O)c1sccc1S(=O)(=O)Nc1ccc(Nc2ccccc2)cc1OC [GSK0660] (first compound 0.004 µM, partner dose 1 µM)", "cleaved PARP positive nuclei fraction": 97.1},
      {"smiles": "C[C@]12O[C@H](C[C@]1(O)CO)n1c3ccccc3c3c4c(c5c6ccccc6n2c5c31)CNC4=O", "note": "[Lestaurtinib] + CC1(C)NC(=O)N(c2ccc([N+](=O)[O-])c(C(F)(F)F)c2)C1=O [nilutamide] (first compound 0.004 µM, partner dose 1 µM)", "cleaved PARP positive nuclei fraction": 74.6},
      {"smiles": "O=C1NC(=O)/C(=C/c2ccc(-c3ccc(F)cc3O)o2)S1", "note": "+ O=C(Oc1ccc([N+](=O)[O-])cc1)N1CCC(C(O)(c2ccc3c(c2)OCO3)c2ccc3c(c2)OCO3)CC1 [JZL184] (first compound 1 µM, partner dose 1 µM)", "cleaved PARP positive nuclei fraction": 63.1},
      {"smiles": "Oc1cc(-c2nc(-c3ccccc3)[nH]c2-c2ccncc2)ccc1Cl", "note": "+ O=C(Oc1ccc([N+](=O)[O-])cc1)N1CCC(C(O)(c2ccc3c(c2)OCO3)c2ccc3c(c2)OCO3)CC1 [JZL184] (first compound 0.2 µM, partner dose 1 µM)", "cleaved PARP positive nuclei fraction": 112},
      {"smiles": "C[C@]12O[C@H](C[C@]1(O)CO)n1c3ccccc3c3c4c(c5c6ccccc6n2c5c31)CNC4=O", "note": "[Lestaurtinib] + O=S(=O)(c1ccccc1)N(CC(F)(F)F)c1ccc(C(O)(C(F)(F)F)C(F)(F)F)cc1 [T0901317] (first compound 0.004 µM, partner dose 1.4 µM)", "cleaved PARP positive nuclei fraction": 203},
      {"smiles": "NCC(=O)Nc1ccc(-n2nc(C(F)(F)F)cc2-c2ccc3c(ccc4ccccc43)c2)cc1", "note": "+ O=C(Oc1ccc([N+](=O)[O-])cc1)N1CCC(C(O)(c2ccc3c(c2)OCO3)c2ccc3c(c2)OCO3)CC1 [JZL184] (first compound 1 µM, partner dose 1 µM)", "cleaved PARP positive nuclei fraction": 89.6},
      {"smiles": "C[C@@H]1CCN(C(=O)CC#N)C[C@@H]1N(C)c1ncnc2[nH]ccc12", "note": "+ C/C(O)=C(\\C#N)C(=O)Nc1cc(Br)ccc1Br [LFM-A13] (first compound 1 µM, partner dose 2 µM)", "cleaved PARP positive nuclei fraction": 73.1}
    ]}
  ]
}
